Experimental data: PubChem BioAssay AID1259405 (NCATS, 2018)
Shown is a random part of about 50,000 reagents tested. About 4,000 of all reagents (8%) were called active. 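Mouse siRNA library applied to hamster cells; one well for each siRNA.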 Reagents against one gene are numbered here. No sequences are given here.

Screen: 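Silenced genes that increase secreted GFP made by CHO cells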 (primary screen)
Cell system: Chinese hamster CHO-K1 ovary cells with stable secreted eGFP expression
Reagents: single siRNA against mouse genes, 0.8 pmol siRNA per well (2 µl of 400 nM stock)
Time to read-out: 3 days
Read-out: 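Per-well intracellular GFP measured by laser scanning cytometry, plus viability from ATP luminescence, each relative to plate median of non-targeting control wells, in %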
Reading the numbers: GFP, % of control: higher = more GFP per well, higher productivity; viability (ATP), % of control: higher = more viable cells (more ATP)
Rule for the call: 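Called active when intracellular GFP, relative to negative control, is at or above 120%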

Cacna1a #1
- GFP, % of control: 40.7
- viability (ATP), % of control: 35.3
- outcome: inactive

Cacna1a #2
- GFP, % of control: 74.2
- viability (ATP), % of control: 69.1
- outcome: inactive

Cacna1a #3
- GFP, % of control: 82.7
- viability (ATP), % of control: 86.7
- outcome: inactive

Abcb1a #1
- GFP, % of control: 107
- viability (ATP), % of control: 92.9
- outcome: inactive

Abcb1a #2
- GFP, % of control: 86.1
- viability (ATP), % of control: 80.7
- outcome: inactive

Abcb1a #3
- GFP, % of control: 79.7
- viability (ATP), % of control: 75.5
- outcome: inactive

Plekha4 #1
- GFP, % of control: 203
- viability (ATP), % of control: 60
- outcome: active

Plekha4 #2
- GFP, % of control: 118
- viability (ATP), % of control: 107
- outcome: inactive

Plekha4 #3
- GFP, % of control: 127
- viability (ATP), % of control: 103
- outcome: active

Cenpe #1
- GFP, % of control: 77.6
- viability (ATP), % of control: 45.6
- outcome: inactive

Cenpe #2
- GFP, % of control: 77.2
- viability (ATP), % of control: 84
- outcome: inactive

H2bc6 #1
- GFP, % of control: 46.1
- viability (ATP), % of control: 63.3
- outcome: inactive

H2bc6 #2
- GFP, % of control: 97
- viability (ATP), % of control: 98.9
- outcome: inactive

H2bc6 #3
- GFP, % of control: 105
- viability (ATP), % of control: 102
- outcome: inactive

Tox3 #1
- GFP, % of control: 72.2
- viability (ATP), % of control: 88
- outcome: inactive

Tox3 #2
- GFP, % of control: 90.4
- viability (ATP), % of control: 84.8
- outcome: inactive

Tox3 #3
- GFP, % of control: 79.6
- viability (ATP), % of control: 72.5
- outcome: inactive

BC048679 #1
- GFP, % of control: 67.8
- viability (ATP), % of control: 78.5
- outcome: inactive

BC048679 #2
- GFP, % of control: 80.4
- viability (ATP), % of control: 76.2
- outcome: inactive

BC048679 #3
- GFP, % of control: 108
- viability (ATP), % of control: 111
- outcome: inactive

Hspa9 #1
- GFP, % of control: 98.9
- viability (ATP), % of control: 47.3
- outcome: inactive

Hspa9 #2
- GFP, % of control: 59.8
- viability (ATP), % of control: 19.8
- outcome: inactive

Hspa9 #3
- GFP, % of control: 79.4
- viability (ATP), % of control: 49.7
- outcome: inactive

Utp11 #1
- GFP, % of control: 76.6
- viability (ATP), % of control: 66.4
- outcome: inactive

Utp11 #2
- GFP, % of control: 93.3
- viability (ATP), % of control: 47.1
- outcome: inactive

Utp11 #3
- GFP, % of control: 34.8
- viability (ATP), % of control: 54.9
- outcome: inactive

Rnh1 #1
- GFP, % of control: 23.2
- viability (ATP), % of control: 34.1
- outcome: inactive

Rnh1 #2
- GFP, % of control: 62.6
- viability (ATP), % of control: 51.2
- outcome: inactive

Rnh1 #3
- GFP, % of control: 51.6
- viability (ATP), % of control: 67.8
- outcome: inactive

Krtap13-21 #1
- GFP, % of control: 44
- viability (ATP), % of control: 40.7
- outcome: inactive

Krtap13-21 #2
- GFP, % of control: 118
- viability (ATP), % of control: 110
- outcome: inactive

Krtap13-21 #3
- GFP, % of control: 81.6
- viability (ATP), % of control: 83.3
- outcome: inactive

Bcl6 #1
- GFP, % of control: 70.6
- viability (ATP), % of control: 73.2
- outcome: inactive

Bcl6 #2
- GFP, % of control: 68.7
- viability (ATP), % of control: 52.9
- outcome: inactive

Atp5f1a #1
- GFP, % of control: 42.4
- viability (ATP), % of control: 55.2
- outcome: inactive

Atp5f1a #2
- GFP, % of control: 71.3
- viability (ATP), % of control: 89
- outcome: inactive

Atp5f1a #3
- GFP, % of control: 174
- viability (ATP), % of control: 73.8
- outcome: active

S1pr4 #1
- GFP, % of control: 68.4
- viability (ATP), % of control: 78.1
- outcome: inactive

S1pr4 #2
- GFP, % of control: 54
- viability (ATP), % of control: 69.1
- outcome: inactive

S1pr4 #3
- GFP, % of control: 56
- viability (ATP), % of control: 57.6
- outcome: inactive

An excerpt taken from the entries so far, as a working copy:
Plekha4 #3
- GFP, % of control: 127
- viability (ATP), % of control: 103
- outcome: active

Cenpe #1
- GFP, % of control: 77.6
- viability (ATP), % of control: 45.6
- outcome: inactive

Cenpe #2
- GFP, % of control: 77.2
- viability (ATP), % of control: 84
- outcome: inactive

H2bc6 #1
- GFP, % of control: 46.1
- viability (ATP), % of control: 63.3
- outcome: inactive

H2bc6 #2
- GFP, % of control: 97
- viability (ATP), % of control: 98.9
- outcome: inactive
